No constants are given. Whether binding was seen depends on the method and setting. Some entries that bind do so weakly or less than the wild type. For some assays here: Tags and fused reporters may be left off the sequences shown.
Experiments:
[1] = target: T1, ProtA-tagged CtNdc1 (Chaetomium thermophilum Ndc1), expressed in S. cerevisiae (Chaetomium thermophilum) (UniProt G0S235); assay: pull-down
T1 sequence: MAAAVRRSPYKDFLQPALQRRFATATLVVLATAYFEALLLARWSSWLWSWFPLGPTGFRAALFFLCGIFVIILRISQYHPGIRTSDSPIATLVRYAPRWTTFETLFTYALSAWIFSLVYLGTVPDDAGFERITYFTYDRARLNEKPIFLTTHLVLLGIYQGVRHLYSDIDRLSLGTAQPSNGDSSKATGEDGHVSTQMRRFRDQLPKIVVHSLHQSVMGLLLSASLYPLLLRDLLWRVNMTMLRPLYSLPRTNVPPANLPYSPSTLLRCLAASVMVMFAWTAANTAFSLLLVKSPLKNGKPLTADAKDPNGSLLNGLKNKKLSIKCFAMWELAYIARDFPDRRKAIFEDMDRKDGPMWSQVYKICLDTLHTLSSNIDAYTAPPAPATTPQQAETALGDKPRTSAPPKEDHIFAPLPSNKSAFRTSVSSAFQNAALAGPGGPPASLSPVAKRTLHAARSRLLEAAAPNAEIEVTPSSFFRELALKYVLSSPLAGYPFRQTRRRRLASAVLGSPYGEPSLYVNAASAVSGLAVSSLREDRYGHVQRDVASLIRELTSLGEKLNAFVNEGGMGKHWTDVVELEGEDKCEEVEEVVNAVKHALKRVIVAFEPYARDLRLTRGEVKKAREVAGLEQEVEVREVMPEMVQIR

By UniProt entry, the sequences of proteins in these tests, tags left out.
UniProt G0SER9: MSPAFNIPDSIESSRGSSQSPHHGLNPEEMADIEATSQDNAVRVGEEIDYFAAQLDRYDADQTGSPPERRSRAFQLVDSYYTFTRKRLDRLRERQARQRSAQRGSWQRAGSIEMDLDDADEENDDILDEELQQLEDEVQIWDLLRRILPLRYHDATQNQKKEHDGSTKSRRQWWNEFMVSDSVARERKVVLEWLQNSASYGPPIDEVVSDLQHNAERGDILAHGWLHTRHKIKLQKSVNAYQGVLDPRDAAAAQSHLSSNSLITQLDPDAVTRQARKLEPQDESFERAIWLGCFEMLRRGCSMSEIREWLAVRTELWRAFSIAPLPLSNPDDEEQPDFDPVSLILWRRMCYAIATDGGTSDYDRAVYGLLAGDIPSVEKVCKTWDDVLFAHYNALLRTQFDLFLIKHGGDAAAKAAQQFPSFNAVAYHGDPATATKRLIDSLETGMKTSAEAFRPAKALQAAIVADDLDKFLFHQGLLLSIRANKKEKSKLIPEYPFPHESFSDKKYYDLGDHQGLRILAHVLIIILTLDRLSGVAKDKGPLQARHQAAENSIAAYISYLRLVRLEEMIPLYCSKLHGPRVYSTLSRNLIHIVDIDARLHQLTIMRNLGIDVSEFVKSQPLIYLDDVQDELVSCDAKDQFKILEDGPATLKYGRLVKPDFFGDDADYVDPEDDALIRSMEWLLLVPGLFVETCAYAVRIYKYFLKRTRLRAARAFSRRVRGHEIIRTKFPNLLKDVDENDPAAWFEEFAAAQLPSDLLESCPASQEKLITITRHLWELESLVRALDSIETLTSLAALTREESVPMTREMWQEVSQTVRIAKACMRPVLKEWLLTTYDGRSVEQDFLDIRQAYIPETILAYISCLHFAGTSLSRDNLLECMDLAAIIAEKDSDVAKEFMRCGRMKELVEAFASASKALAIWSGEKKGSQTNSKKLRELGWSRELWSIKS

[2] = target: T2, CtNdc1 (1-308), N-terminal transmembrane part, Alexa Fluor 488-labeled, reconstituted into GUVs (Chaetomium thermophilum) (UniProt G0S235); assay: recruitment to GUVs
T2 sequence (chain, Alexa Fluor 488 (succinimidyl ester labelling)): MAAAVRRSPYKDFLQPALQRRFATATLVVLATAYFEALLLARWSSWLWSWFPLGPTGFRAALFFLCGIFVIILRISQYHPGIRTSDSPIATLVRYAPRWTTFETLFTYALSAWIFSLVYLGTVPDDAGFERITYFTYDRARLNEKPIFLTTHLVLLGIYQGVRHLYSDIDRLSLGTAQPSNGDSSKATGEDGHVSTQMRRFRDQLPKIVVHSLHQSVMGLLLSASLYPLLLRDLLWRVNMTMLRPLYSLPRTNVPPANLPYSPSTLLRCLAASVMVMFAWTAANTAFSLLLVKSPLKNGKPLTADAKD

[3] = target: T3, ProtA-tagged CtPom152 (Chaetomium thermophilum Pom152), expressed in S. cerevisiae (Chaetomium thermophilum) (UniProt G0SB44); assay: pull-down
T3 sequence: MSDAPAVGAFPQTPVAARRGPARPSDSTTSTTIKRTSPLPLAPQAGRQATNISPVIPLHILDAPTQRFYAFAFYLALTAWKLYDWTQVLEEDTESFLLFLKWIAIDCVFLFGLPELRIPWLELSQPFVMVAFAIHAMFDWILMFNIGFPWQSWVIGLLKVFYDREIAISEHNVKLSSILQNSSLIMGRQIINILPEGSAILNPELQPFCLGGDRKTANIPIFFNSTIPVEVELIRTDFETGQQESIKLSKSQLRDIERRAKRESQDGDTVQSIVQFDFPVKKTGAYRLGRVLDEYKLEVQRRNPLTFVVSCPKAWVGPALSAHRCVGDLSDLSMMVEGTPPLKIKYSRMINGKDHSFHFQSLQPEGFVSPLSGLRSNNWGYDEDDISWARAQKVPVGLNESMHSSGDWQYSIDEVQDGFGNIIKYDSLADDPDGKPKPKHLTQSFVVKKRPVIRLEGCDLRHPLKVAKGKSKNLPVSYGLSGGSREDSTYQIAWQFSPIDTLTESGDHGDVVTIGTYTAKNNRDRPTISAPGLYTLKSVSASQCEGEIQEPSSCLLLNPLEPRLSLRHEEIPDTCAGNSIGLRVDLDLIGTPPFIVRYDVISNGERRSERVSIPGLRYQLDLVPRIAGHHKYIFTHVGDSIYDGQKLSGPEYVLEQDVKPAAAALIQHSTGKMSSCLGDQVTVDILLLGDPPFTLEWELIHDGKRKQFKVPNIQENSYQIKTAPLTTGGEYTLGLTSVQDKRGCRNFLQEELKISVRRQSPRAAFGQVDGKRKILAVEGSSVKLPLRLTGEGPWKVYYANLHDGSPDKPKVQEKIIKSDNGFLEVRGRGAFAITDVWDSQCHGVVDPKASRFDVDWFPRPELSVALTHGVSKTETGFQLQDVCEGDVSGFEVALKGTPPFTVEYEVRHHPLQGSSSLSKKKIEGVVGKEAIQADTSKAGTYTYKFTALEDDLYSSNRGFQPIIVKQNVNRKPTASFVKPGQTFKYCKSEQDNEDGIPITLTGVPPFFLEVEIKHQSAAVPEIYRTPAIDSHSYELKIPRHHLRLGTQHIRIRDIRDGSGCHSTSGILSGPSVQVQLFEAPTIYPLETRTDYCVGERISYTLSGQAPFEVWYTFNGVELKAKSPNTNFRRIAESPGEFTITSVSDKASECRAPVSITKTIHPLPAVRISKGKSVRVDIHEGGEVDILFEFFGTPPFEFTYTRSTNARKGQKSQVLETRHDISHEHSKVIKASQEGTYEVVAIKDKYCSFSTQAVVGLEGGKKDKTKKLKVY

Molecule: CtNup120βM, β-propeller domain of CtNup120 with an α-helical extension (from UniProt G0S0E7 1-832) (domain or fragment)
- binding [1]: binds

Molecule: CtNup84 (Chaetomium thermophilum Nup84), full length (from UniProt G0SER9 1-948)
- binding [1]: no binding

B1: CtNup120βM, β-propeller domain of CtNup120 with an α-helical extension (domain or fragment, UniProt G0S0E7 1-832)
chain: MAFDNFEILYKETRLNLEPASPSSVVQLRVAPTNAYGRSSLSSSSSSRPASATADDEKGYRTKNLATASSIYYRKHHSSPRGFLWRVLDNNTVLSIRVADVCRQEKVADAPLILNLRFASPLRPACVGFADHEDHDALFVYAIDQSNQLWSIILRPDHFRKRSATEGGLGDASRVYSPPGFGFKHPHRLAVVSPDQLIVTMHDGGILKFDRNKNHESHGSPWRESIYNVAGWGQSLRGLVPFQRNPTVRYEKINMELTAAASTAVTTMGHAETAFLFTICLDHRMRVWDVRTGQILYTGDILNNTKRDPQEVGKWTVDPSQNNLIRILDNGRGQCLVVTYSPVGAGEFKFWKVKANDQGSIHVTDCFPDARLMSPNPTSLDVWTLADFAIAQQPDGPELWALWKNNTSYRVNRLQIIPRNATAPFADGWKAVCVESPGPTPRASGSWNPTDSTEKWLDLIFSPGRFSKSTLETALAMYEKGLGTYKETVSRSGKGIAESICSVIGSTTTLDRSSQGGADYDQFRNTSETQWMRFWRLLLELDKQRGEALSLVFDQYDGMVWVTCADLLAAVRQCSDLERLYHNLQSPEKKNEDVAALISAGLTFVETFSDSMHQLCKAALRAELYENSALSDRERMQLFLDRAGFWVTDEDWAQVLDIVGQNYQMVTSRLYEDLFDLITATSEANSQELREPFTIFGKKVVVRAVQETVELHWQILFSQLILLVNMVDSESEEARPLHTRFDVGSVYRRLIDALRRLEHLRWMTKTELSVSPSKSRSGSSSPTLSKRGQDESYTRTALEELAGHLFGLPESNNMPLLSSITDLVLDLCAPTS
modifications: Alexa Fluor 546 label in the GUV assay
- binding [2]: binds

B2: CtNup120 (Chaetomium thermophilum Nup120), full length (protein, UniProt G0S0E7 1-1262)
chain: MAFDNFEILYKETRLNLEPASPSSVVQLRVAPTNAYGRSSLSSSSSSRPASATADDEKGYRTKNLATASSIYYRKHHSSPRGFLWRVLDNNTVLSIRVADVCRQEKVADAPLILNLRFASPLRPACVGFADHEDHDALFVYAIDQSNQLWSIILRPDHFRKRSATEGGLGDASRVYSPPGFGFKHPHRLAVVSPDQLIVTMHDGGILKFDRNKNHESHGSPWRESIYNVAGWGQSLRGLVPFQRNPTVRYEKINMELTAAASTAVTTMGHAETAFLFTICLDHRMRVWDVRTGQILYTGDILNNTKRDPQEVGKWTVDPSQNNLIRILDNGRGQCLVVTYSPVGAGEFKFWKVKANDQGSIHVTDCFPDARLMSPNPTSLDVWTLADFAIAQQPDGPELWALWKNNTSYRVNRLQIIPRNATAPFADGWKAVCVESPGPTPRASGSWNPTDSTEKWLDLIFSPGRFSKSTLETALAMYEKGLGTYKETVSRSGKGIAESICSVIGSTTTLDRSSQGGADYDQFRNTSETQWMRFWRLLLELDKQRGEALSLVFDQYDGMVWVTCADLLAAVRQCSDLERLYHNLQSPEKKNEDVAALISAGLTFVETFSDSMHQLCKAALRAELYENSALSDRERMQLFLDRAGFWVTDEDWAQVLDIVGQNYQMVTSRLYEDLFDLITATSEANSQELREPFTIFGKKVVVRAVQETVELHWQILFSQLILLVNMVDSESEEARPLHTRFDVGSVYRRLIDALRRLEHLRWMTKTELSVSPSKSRSGSSSPTLSKRGQDESYTRTALEELAGHLFGLPESNNMPLLSSITDLVLDLCAPTSTTVLNTWLIQCWLLKEGRPDLALELMPFAEQDPFSTYVQGRVFLALRDYDTAAQHFRKAAIGLSIPLKHVDRHSAGLLDDTEWNLLNSGLPNYYAHIVNLYDKQKAYSYVMEFSRLALQFAQTSNQDSASIKTEMLSRLFTASTATSHFEEAHSALLAMDDEALQKSYLRKLLERMCESGQSSELISLPFSGLQNKVDEILAEKCRATRDVLNGVPYHQILYAWRISHNDYRGAAAILLDRLEKLRRSGEGDKLGAEDGENGAGNDALDTQVTRQYLIVINALSCVAPQEAYILEDVPPPVPGKGTNDEEYSQTGSKRKLGKLNATSGEEDLDSRIEELARLLDSESAGDKKARPSSSSEEDQQLLERMQKFSTAVRQEQGQQTPRRLLRLEDLRKQYQQELDRIVAIQNNQFALTADGEDEDEDMMDIA
modifications: Alexa Fluor 546 label in the GUV assay
- binding [3]: no binding

B3: CtNup133 (Chaetomium thermophilum Nup133), full length (protein, UniProt G0S9A7 1-1364)
chain: MFSSTLHEDGPATRTRSSRRRQRPVASDSSLQTQPKAKRQRVPLTESNTAPTPTPADADAPPEMFEVKPDPVLAKRERDGIGIENIENLGPRRELSLRSKKPKSGERTSKGDGSIILTTNNAFTVSKLPALPDRLRAEPTSRQHGAIFSSGYALALTHTHAFVWPYTATTASPETFTFALPYPSKHASDPLPLGALVPPSASSDDPGLVVVMPVSGRVVYWESISSAATLDFIRQQRTGIEDAISGMYSSEHITQLVSAESAGFVLVFSSGRIAYMSVRDPHGRPGITVQYLRSPFGGASLGFLSTLRHALSGSSRGDIAAAHANHGPRVGERVVIAASSKGRLQAWKIHRGGHHEPVAEADVRERLVEAVNEADAKTQAFPSESFEVLDFAFVPRGLEPKYVNASRLSEALTHEEDSLQHMLLLVGFSRGHQARYSLVETVLAPEGARIGTVRPITSYTSPVRPGALEKPRLYLPRPALVAFVVFDRAVVVASMVAPPDSPDSQLQEDSHILPPTFEDVVDFRDDDTLQVVGSGSEEPGAGTSSEDVRPHRHKTKNPTAVLLLPGVGIVRVAITDIERFASDAPPRVTAKSKLEQAVFFGIKSDNPLVFQGRRALPFSDREVCDAAVELSHEIVNSKTPFIPSVPASLEGNMKSRSAYLDALITFLNACKVNMDERTRWMLLYDAEKMAVATWIWQKHEQFLAERPRADKKTLISEAAVFINENQKTELNVAAGQVDPVRHWFIHDIFRLDIFVAWAYQIIKYHYTQKLSDEPGLNRLVWEAVTINNGALLEARQFRLDKAAQYGVDPAVVPTGNGLPEPWTSTYFITNNLKRLTEFCHQWLAKHDAQPSADPRFDARLLDTVRERLPSLTSQYFTSLSEYITWAASSTDPETQDRCRAYQAAYAEDVYKKIVKLKEFDLWEEAVELAREFEAFDALADVVVGQILMLEAAAADPTTTESKAQENAALAQVKKQRLGRLMEEFGEGFASRAYEVLLDAAGVQAVLEFAFDRKGFITKWLRGKPELARISWVNEVLREGDVGGAAETLLGLGMSREVQVWNKKVELSLGKLALLAEGGGSDDEAGKGEVGGTIKKIDAELEVVKVQDLLYQWILASVHEAVDSSAEVELAVKQFGGLIPRRQKALLQIFEDGIARLLKHEVLDPLTLIDLLTLSSLGPGHYEGMGDQFFLALKVAHYAALENAEEVRRLIWRRCLVRDDWRQVNETNLKGDEEALEAVGETAAYRTLFACFDEESSTPTFRPHHTLKPSDCLGVYTEPEQLDSRFAAMDDSFRGKLVEAMRAEDRLLRGFVEKAQLDEWWRATRETAERMVGVAAQKGHRRVNSGSVGNGGVNGLSLNGRVKMY
modifications: Alexa Fluor 546 label in the GUV assay
- binding [3]: no binding

Source: publication doi:10.1101/2022.07.31.501833
